Results on 1 substance are retold here after paper PMC7139850.

Protein sequences, listed by entry. Tags and fused reporters are not part of them. Residues count along the entry.
UniProt P04785, residues 20-509: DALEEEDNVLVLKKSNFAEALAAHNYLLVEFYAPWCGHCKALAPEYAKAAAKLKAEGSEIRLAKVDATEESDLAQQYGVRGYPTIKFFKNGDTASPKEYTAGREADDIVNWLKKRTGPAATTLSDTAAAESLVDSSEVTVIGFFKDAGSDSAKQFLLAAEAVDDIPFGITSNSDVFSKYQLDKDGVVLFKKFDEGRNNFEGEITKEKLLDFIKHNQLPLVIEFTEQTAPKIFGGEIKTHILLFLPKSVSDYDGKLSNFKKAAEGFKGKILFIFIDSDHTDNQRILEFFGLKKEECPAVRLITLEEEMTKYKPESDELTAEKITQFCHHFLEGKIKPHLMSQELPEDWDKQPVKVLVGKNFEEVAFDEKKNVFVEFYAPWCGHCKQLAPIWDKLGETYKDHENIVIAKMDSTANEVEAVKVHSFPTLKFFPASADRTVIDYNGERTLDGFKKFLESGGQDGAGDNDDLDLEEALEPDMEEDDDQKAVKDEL

The assay deals with NR2A subunit of the N-methyl-D-aspartate receptor (NMDAR) (rat (endogenous in hippocampus)) (UniProt Q00959). Nature of the assay: co-IP; rat hippocampal tissue lysed in RIPA buffer with protease and phosphatase inhibitor cocktails and 1 mM sodium orthovanadate; equal amounts of protein precipitated with the primary antibody and protein G sepharose at 4 °C overnight; Western blot; animals: saline vs PILO acute seizure, control vs epileptic rats, control siRNA vs PDI siRNA in epileptic rats. On the technique in general: A western blot detects proteins with antibodies after separation by electrophoresis.

These are yes or no findings as the source states them, for the method shown. In cells and extracts the contact can be indirect. Some binding calls cover weakened binding; strength is not graded here.

“Protein disulfide isomerase (PDI) (from UniProt P04785 20-509) (enzyme)”: the binding result was “binds”.
